Measurements: the supplement of paper PMC12067093, “Discovery and optimisation of a covalent ligand for TRIM25 and its application to targeted protein ubiquitination” (Chemical Science, 2025)
The list shows a part of the results.

Compound: CC1Cc2ccccc2N1C(=O)C1CCCN(C1)C(=O)CCl (mixture of isomers) [TRIM25 ligand 11 (diastereomer mixture)]
Test: probe-labelled cysteine peptide fold change vs DMSO (competition) (log2 fold change); higher = less target engagement (more negative = stronger competition)
Details: THP-1, incubation time: 4 h
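Further: competitive chemoproteomic profiling in live THP-1 cells with an iodoacetamide desthiobiotin (IA-DTB) probe, comparing probe-labelled peptide intensities in compound-treated cells against DMSO-treated controls.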

Target	probe-labelled cysteine peptide fold change (10 µM)	probe-labelled cysteine peptide fold change (50 µM)
FLII_Q13045_576_NYLGAECR (UniProt Q13045)	0.00174	0.107
FKBP1A_P62942_23_GQTCVVHYTGMLEDGK (UniProt P62942)	-0.059	-0.058
FHL1_Q13642-1_276_FVFHQEQVYCPDCAK (UniProt Q13642)	0.215	0.0469
FN1_P02751_179_GEWTCKPIAEK (UniProt P02751)	0.224	-0.0449
FNDC3A_Q9Y2H6_369_GTPSEAEIFTTLSCEPDIPNPPR (UniProt Q9Y2H6)	0.0204	-0.545
FKBP5_Q13451_107_KGEICHLLCKPEYAYGSAGSLPK (UniProt Q13451)	-0.0225	0.0393
FTL_P02792_127_TDPHLCDFLETHFLDEEVK (UniProt P02792)	0.0234	0.276
FLCN_Q8NFG4_454_STLHPVGCEDDQSLSK (UniProt Q8NFG4)	0.135	-0.148
FKBP5_Q13451_215_MQREEQCILYLGPR (UniProt Q13451)	-0.162	-0.118
FKBP4_Q02790_328_LASHLNLAMCHLK (UniProt Q02790)	-0.0218	0.0219
FN1_P02751_461_FGFCPMAAHEEICTTNEGVMYR (UniProt P02751)	0.0257	0.00918
FYCO1_Q9BQS8_848_AHVQELLQCSER (UniProt Q9BQS8)	-0.0477	-0.165
FNDC3B_Q53EP0_966_LECAAAGPQSLK (UniProt Q53EP0)	0.0509	0.0341
FKBP8_Q14318_227_KRECGNAHYQR (UniProt Q14318)	-0.184	-0.23
FRMD8_Q9BZ67_206_LDSFLPAHLCK (UniProt Q9BZ67)	0.143	0.137
FLNB_O75369_991_VVPCLVTPVTGR (UniProt O75369)	0.0198	0.0861
FXR1_P51114_129_CTVDVPEDLREACANENAHK (UniProt P51114)	-0.102	-0.0151
FGGY_Q96C11_280_GHGLICEGQPVTSR (UniProt Q96C11)	0.12	-0.0295
FKBP8_Q14318_274_CLNNLAASQLK (UniProt Q14318)	0.0345	0.0605
FXR1_P51114_129+141_CTVDVPEDLREACANENAHK (UniProt P51114)	-0.154	-0.0181
FUBP1_Q96AE4_332_CQHAAEIITDLLR (UniProt Q96AE4)	-0.0805	0.122

Target	probe-labelled cysteine peptide fold change (10 µM)	probe-labelled cysteine peptide fold change (50 µM)
FZD6_O60353_123_WPEELECDR (UniProt O60353)	-0.074	0.0918
FUS_P35637_428_CPNPTCENMNFSWR (UniProt P35637)	-0.139	-0.114
FLII_Q13045_1257+1265_CFHAWSAFCK (UniProt Q13045)	0.0143	-0.116
FRG1_Q14331_159_CNEAGDIEAK (UniProt Q14331)	-0.0781	-0.137
FLNB_O75369_2537_SSFLVDCSK (UniProt O75369)	-0.0792	-0.0474
FOXM1_Q08050_56_EVAESNSCK (UniProt Q08050)	0.0529	-0.0796
G6PD_P11413_158_NIHESCMSQIGWNR (UniProt P11413)	0.171	-0.271
FRY_Q5TBA9_2009_IQACTQQGLSSK (UniProt Q5TBA9)	-0.102	-0.289
FYCO1_Q9BQS8_293_LTCLVAELQK (UniProt Q9BQS8)	-0.0779	0.119
GABPB1_Q06547_331_QCIEIIENRVESAEIEER (UniProt Q06547)	-0.221	-0.162
FOCAD_Q5VW36_1243_LLVENSQQTSGFALALGNIVHGLSVCGHGK (UniProt Q5VW36)	0.132	-0.122
GABPA_Q06546_338_DCISWVGDEGEFK (UniProt Q06546)	0.0383	-0.0188
FXR2_P51116_282_IYGETPEACR (UniProt P51116)	-0.117	0.24
FSCN1_Q16658_80_YLAADKDGNVTCER (UniProt Q16658)	-0.346	-0.134
FMNL1_O95466_69_KWELICDQER (UniProt O95466)	-0.128	0.000214
G6PD_P11413_385_LQFHDVAGDIFHQQCKR (UniProt P11413)	-0.408	-0.258
FHOD1_Q9Y613_43_RAPTCSLDGALPLGAQIPAVHR (UniProt Q9Y613)	-0.183	-0.0603
FLII_Q13045_119_NSGVPDDIFKLDDLSVLDLSHNQLTECPR (UniProt Q13045)	0.00979	-0.198
FHOD1_Q9Y613_977_IMQFCHTLR (UniProt Q9Y613)	0.00186	0.415
FN1_P02751_386_QDGHLWCSTTSNYEQDQK (UniProt P02751)	0.296	-0.183
GAK_O14976_560_YIEYMCDMVAEEPITPHSKPILVR (UniProt O14976)	-0.164	-0.257

Target	probe-labelled cysteine peptide fold change (10 µM)	probe-labelled cysteine peptide fold change (50 µM)
GABPA_Q06546_61+69_LQCSLDAHEICLQDIQLDPER (UniProt Q06546)	0.0282	0.0599
FHL2_Q14192_224_CAGCTNPISGLGGTK (UniProt Q14192)	-0.000107	0.0367
FKBP2_P26885_42_VDHCPIK (UniProt P26885)	-0.198	-0.254
FHL1_Q13642-1_255_CSVNLANKR (UniProt Q13642)	-0.0465	0.0327
FOXP1_Q9H334_317_WPGCEAVCEDFQSFLK (UniProt Q9H334)	0.197	-0.0107
FXR2_P51116_151_EACSNENVHK (UniProt P51116)	0.36	0.06
FLOT2_Q14254_56_CEDVETAEGVALTVTGVAQVK (UniProt Q14254)	-0.0392	0.0252
FTSJ1_Q9UET6_238_IIVPFVTCGDLSSYDSDR (UniProt Q9UET6)	-0.0326	0.0546
FLII_Q13045_119_LDDLSVLDLSHNQLTECPR (UniProt Q13045)	0.16	0.088
FOS_P01100_204_EKLEFILAAHRPACK (UniProt P01100)	-0.296	-0.128
FRA10AC1_Q70Z53_175_GQFFCGNK (UniProt Q70Z53)	0.108	0.0338
FGD3_Q5JSP0_184_LHLLDQVFCTR (UniProt Q5JSP0)	-0.187	0.0888
FSCN1_Q16658_260_VGKDELFALEQSCAQVVLQAANER (UniProt Q16658)	0.0245	-0.148
FNBP1_Q96RU3_511_RQSGLYDSQNPPTVNNCAQDR (UniProt Q96RU3)	0.269	-0.0608
FTH1_P02794_91+103_KPDCDDWESGLNAMECALHLEK (UniProt P02794)	-0.0941	0.0264
FLNB_O75369_706_MDGTYACSYTPVK (UniProt O75369)	0.024	-0.214
FLNB_O75369_2501_SSTETCYSAIPK (UniProt O75369)	-0.0551	-0.0775
FNDC3B_Q53EP0_558_SCPSEVLVCTTSPDRPGPPTRPLVK (UniProt Q53EP0)	-0.059	-0.0636
FNDC3B_Q53EP0_674_TLSIAPGQCRPPR (UniProt Q53EP0)	-0.00915	-0.0543

In another format: entries from further up
Target,probe-labelled cysteine peptide fold change (10 µM),probe-labelled cysteine peptide fold change (50 µM)
FKBP2_P26885_42_VDHCPIK (UniProt P26885),-0.198,-0.254
FHL1_Q13642-1_255_CSVNLANKR (UniProt Q13642),-0.0465,0.0327
